Assay results taken from PubChem BioAssay AID2685 (National Center for Advancing Translational Sciences (NCATS), 2010).
The other results are listed elsewhere or left out. These are further read-outs of the screen, such as a control signal, another cell line or another target. No call is given for them. The list favours compounds with an active or inconclusive main result. The note in brackets gives the kind of curve behind each potency; many fits are weak.

Assay: qHTS Assay for Lipid Storage Modulators in Drosophila S3 Cells;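 as to cell number change: cells counted by Cell Tracker Red CMTPX staining in the red channel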
Details: BODIPY lipid droplet fluorescence, 18-24 h; for cell number change: measured here: cell count max response, cells fed with added oleic acid
Method in brief: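 Drosophila S3 cells loaded with oleic acid (400 uM, as added) and compounds at several concentrations; lipid droplets imaged by 488-nm laser-scanning cytometry, 500–530 nm intensity and object ratio to cell channel. Percent activity normalized to 20 uM Triacsin C.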

[1] = measured here: lipid fluorescence (Fed channel) AC50, cells fed with added oleic acid
[2] = measured here: cell number channel AC50, cells fed with added oleic acid

| Compound | cell number change [%] | AC50 [1] | AC50 [2] |
| --- | --- | --- | --- |
| Cc1nn(Cc2ccc(C(=O)Nc3ccccc3C(F)(F)F)o2)c(C)c1Br | -8.71 | 29.1 µM [falling, single point] | – |
| CCOc1cccc(CN2CCCC(CCC(=O)NCc3ccccc3F)C2)c1O (configuration not stated) | – | 4.11 µM [rising, single point] | – |
| CCCC(=O)NC(c1ccc(C(C)C)cc1)c1ccc2cccnc2c1O (configuration not stated) | -34.7 | 11.6 µM [falling, partial curve, poor fit] | 18.4 µM [falling, partial curve, poor fit] |
| Cc1cc(NC(=O)CSc2ccc(-c3nc4cc(C)c(C)cc4[nH]3)cn2)no1 | -1.98 | 0.116 µM [falling, full curve, poor fit] | – |
| COCCCNC(=O)C(=O)NCC1CCCN1S(=O)(=O)c1cccs1 (configuration not stated) | 41.7 | – | 23.1 µM [rising, single point] |
| CCS(=O)(=O)C1=NN2C(=N)/C(=C\c3ccc(SCc4ccco4)o3)C(=O)N=C2S1 | -37.2 | 2.31 µM [falling, partial curve, poor fit] | 6.51 µM [falling, single point] |
| O=C(CSc1nnc(CNC(=O)c2ccccc2)o1)NCc1ccccc1Cl | -59.7 | 8.2 µM [falling, partial curve] | 14.6 µM [falling, partial curve, poor fit] |
| COc1ccc(OC)c(C(=O)CSc2nc3ncccc3[nH]2)c1 | 90.7 | – | 29.1 µM [rising, single point] |
| O=C(O)C(Cc1c[nH]c2ccccc12)N1C(=O)C2C3c4ccccc4C(c4ccccc43)C2C1=O (configuration not stated) | 39.7 | 20.6 µM [rising, single point] | – |
| CC[C@@H]1[C@H]2CCCC(=O)N3CC[C@@H](C[C@@H]1Nc1ccccc1)[C@@H]23 | 11.4 | 6.51 µM [falling, single point] | – |
| CNC(=O)c1[nH]cnc1C(=O)Nc1cccc(C)c1 | 8.02 | 20.6 µM [rising, single point] | – |
| Cc1[nH][nH]c(=O)c1N=Nc1ccccc1 | 99.5 | – | 25.9 µM [rising, single point] |
| CCN1CCN(S(=O)(=O)c2cccc([N+](=O)[O-])c2)CC1 | -8.03 | – | – |
| c1ccc(Sc2cccc3ccccc23)c(CNC2=NCCN2)c1 | – | 0.0731 µM [falling, full curve, poor fit] | – |
| Cc1nccn1CCc1nc(N)nc(N)n1 | -95.3 | 29.1 µM [falling, partial curve] | 5.8 µM [falling, full curve] |
| CCOc1ccc(NC(=O)CCNS(=O)(=O)c2ccc3c(c2)c(=O)n(C)c(=O)n3C)cc1 | 5.16 | – | – |
| O=C(Cc1ccccc1)Nc1ncccn1 | -18.4 | 23.1 µM [falling, partial curve, poor fit] | – |
| Cc1cc(C)nc(Sc2ccc(C=O)cc2[N+](=O)[O-])n1 | 4.41 | – | – |
| OCC[C@H]1C[C@@H](O)[C@H](O)[C@]2(CCCCO2)O1 | -5.6 | – | – |
| O=C(COC(=O)c1cc([N+](=O)[O-])ccc1N1CCOCC1)Nc1ccccc1OC(F)F | – | 6.51 µM [rising, single point] | 3.26 µM [rising, single point] |

Three compounds out of the list, arranged by molecular weight, high to low.

| Compound | cell number change [%] | AC50 [1] | AC50 [2] |
| --- | --- | --- | --- |
| O=C(COC(=O)c1cc([N+](=O)[O-])ccc1N1CCOCC1)Nc1ccccc1OC(F)F | – | 6.51 µM [rising, single point] | 3.26 µM [rising, single point] |
| O=C(CSc1nnc(CNC(=O)c2ccccc2)o1)NCc1ccccc1Cl | -59.7 | 8.2 µM [falling, partial curve] | 14.6 µM [falling, partial curve, poor fit] |
| COc1ccc(OC)c(C(=O)CSc2nc3ncccc3[nH]2)c1 | 90.7 | – | 29.1 µM [rising, single point] |

Carrying on:

| Compound | cell number change [%] | AC50 [1] | AC50 [2] |
| --- | --- | --- | --- |
| CCN(CCn1cccn1)C(=O)CCc1nnc(C2(c3ccc(Cl)cc3)CCC2)o1 | -1.87 | 0.58 µM [falling, single point] | – |
| Nc1c(C(=O)c2ccco2)oc2ccccc12 | 13.5 | – | 0.0517 µM [rising, full curve, poor fit] |
| COc1cc2c(cc1OC)C(c1ccccc1O)N(C1CC(=O)N(c3ccccc3)C1=O)CC2 (configuration not stated) | -10.6 | 1.84 µM [rising, partial curve] | – |
| O=C1C2ON(c3ccccc3)C(c3ccncc3)C2C(=O)N1c1ccccc1 (configuration not stated) | – | 2.59 µM [rising, single point] | 3.66 µM [rising, single point] |
| CC(C)(C)NC1=CC(=O)OC12CCCCC2 | -19.8 | 1.46 µM [falling, partial curve, poor fit] | – |
| CCOC(=O)c1ccc(NC(=S)N2CCC(C(N)=O)CC2)cc1 | 12.1 | 23.1 µM [rising, single point] | – |
| O=S(=O)(c1ccc(SCc2ccccc2)nc1)N1CCCCCC1 | -3.76 | 16.4 µM [falling, single point] | – |
| S=c1[nH]nc(COc2ccccc2)n1/N=C/c1cccc(Br)c1 | -46.2 | 16.4 µM [falling, single point] | 18.4 µM [falling, single point] |
| COc1ccc(OC)c(CN(CCN2CCOCC2)C(=O)Nc2cccc(Cl)c2)c1 | -2.9 | – | 3.66 µM [rising, single point] |
| Cc1ccc(CS(=O)(=O)c2nsc(C)c2C#N)cc1 | 20.6 | 6.51 µM [falling, single point] | – |
| O=C(Cn1cnc2ccccc2c1=O)c1ccc2c(c1)OCCO2 | 2.75 | 0.0259 µM [falling, full curve, poor fit] | – |
| O=C(NCCc1ccccc1Cl)C1CC(=O)N(C2CCCCC2)C1 (configuration not stated) | -11.4 | 6.51 µM [rising, single point] | – |
| CCN(CC)CC(=O)NC1CC(C)(C)Cc2c1cnn2-c1ccc(F)cc1 (configuration not stated) | -11 | – | – |
| O=C(Nc1ccccc1)N1CCN(c2ncccn2)CC1 | – | 0.58 µM [falling, single point] | – |
| COc1ccc(/C=C/c2c([N+](=O)[O-])c(=O)n(C)c(=O)n2C)c(OC)c1 | 65.4 | – | 29.1 µM [rising, single point] |
| CC1=NN(c2ccc(C)cc2)C(=O)/C1=C\c1ccc(Br)s1 | -9.22 | 29.1 µM [falling, single point] | – |
| CCOc1ccc(NC(=O)CSc2nnc(-c3ccco3)n2C)cc1 | 17.7 | – | 0.92 µM [rising, full curve, poor fit] |
| Cc1cc(C)c(S(=O)(=O)Nc2cccc(/C=C/C(=O)O)c2)c(C)c1 | -49.1 | 25.9 µM [falling, single point] | 29.1 µM [falling, single point] |
| Cc1ccc(N/N=C(/Sc2nnnn2-c2ccccc2)C(=O)c2ccccc2)cc1 | 7.94 | 18.4 µM [rising, partial curve] | – |
| CCOC(=O)Cn1nnnc1CN1CCN(c2ccc(OC)cc2)CC1 | -12.7 | 0.651 µM [falling, full curve] | – |

| Compound | cell number change [%] | AC50 [1] | AC50 [2] |
| --- | --- | --- | --- |
| COc1ccc(CNC(=O)COC(=O)c2ccc3ncsc3c2)cc1OC | -52.9 | – | 16.4 µM [falling, partial curve] |
| CSCC(=O)NC1CCCc2c1cnn2-c1cc(F)cc(F)c1 (configuration not stated) | -56.9 | 8.2 µM [falling, partial curve] | 14.6 µM [falling, partial curve] |
| O=C(NC1CCCC1)C1CCCN1C(=O)Nc1ccccc1Cl (configuration not stated) | -31.3 | 29.1 µM [falling, single point] | 20.6 µM [falling, single point] |
| NC(=O)c1nsc(C(=O)N(CC(=O)NC2CCCC2)c2cccc(C(F)(F)F)c2)c1N | -12.5 | 29.1 µM [rising, single point] | – |
| CC(=O)C1=C(O)C(=O)N(CC(=O)O)C1c1ccccc1Cl (configuration not stated) | -19.6 | 2.91 µM [falling, full curve] | – |
| CCn1c(-c2csc3c2CCCC3)n[nH]c1=S | 7.72 | 29.1 µM [rising, single point] | – |
| COc1cccc2c1O/C(=N\O)C(C(=O)Nc1cccc(C)c1C)C2 (configuration not stated) | 4.6 | 7.31 µM [falling, single point] | – |
| CC(C)C(=O)N1CCC(c2nc(-c3ccc(S(=O)(=O)N4CCCC4)cc3)no2)CC1 | 7.91 | 29.1 µM [falling, single point] | – |
| COc1ccc(-c2ocnc2C(=O)Nc2ccccc2N2CCCCC2)cc1 | -31.4 | – | 0.13 µM [falling, full curve, poor fit] |
| O=C(O)CNC(=O)c1ccccc1Br | – | – | 4.61 µM [falling, single point] |
| CCOC(=O)N1CCC(NC(=O)c2ccc(CS(=O)(=O)c3ccc(OC)cc3)o2)CC1 | – | 9.2 µM [rising, single point] | 2.31 µM [rising, single point] |
| CCOC(=O)C1C(=O)NC(c2ccccc2)=NC1c1cccc(Br)c1 (configuration not stated) | -11.6 | – | 0.103 µM [rising, full curve, poor fit] |
| CC(C)c1ccc(-c2nc3c([nH]2)c(=O)n(C)c(=O)n3C)cc1 | -9.33 | 29.1 µM [falling, single point] | – |
| Cc1ccc(NC(=O)C(Cc2ccccc2)NC(=O)c2ccco2)cc1 (configuration not stated) | -0.4 | 1.46 µM [falling, full curve, poor fit] | – |
| COCCC(=O)N1CCC(Oc2ccc(C(=O)NC(C)CCn3cccn3)cc2)CC1 (configuration not stated) | 12.4 | 0.651 µM [rising, single point] | – |
| COc1cc2c(cc1OC)-c1cc(N3CCCc4ccccc43)nc(=O)n1CC2 | 13.1 | 0.116 µM [rising, full curve] | – |
| Cc1nc(NS(=O)(=O)c2ccccc2)sc1NC(=O)Nc1ccccc1 | -7.75 | 0.291 µM [rising, partial curve, poor fit] | – |
| CC(=O)Nc1sc2c(c1C(c1cccc(Cl)c1)N1CCN(CCO)CC1)CCCC2 (configuration not stated) | 54.1 | – | 29.1 µM [rising, single point] |
| CN(C)S(=O)(=O)Oc1ccsc1C(=O)Nc1ccc(C(F)(F)F)cc1 | 12.3 | 20.6 µM [rising, partial curve] | – |
